Experimental data published in article PMC13485502.
No constants are given. Whether binding was seen depends on the method and setting. Binding seen in cells or lysates may run through a third protein. Some entries that bind do so weakly or less than the wild type.

Chains of the proteins cited; added tags and fusions are not shown.
UniProt P01106: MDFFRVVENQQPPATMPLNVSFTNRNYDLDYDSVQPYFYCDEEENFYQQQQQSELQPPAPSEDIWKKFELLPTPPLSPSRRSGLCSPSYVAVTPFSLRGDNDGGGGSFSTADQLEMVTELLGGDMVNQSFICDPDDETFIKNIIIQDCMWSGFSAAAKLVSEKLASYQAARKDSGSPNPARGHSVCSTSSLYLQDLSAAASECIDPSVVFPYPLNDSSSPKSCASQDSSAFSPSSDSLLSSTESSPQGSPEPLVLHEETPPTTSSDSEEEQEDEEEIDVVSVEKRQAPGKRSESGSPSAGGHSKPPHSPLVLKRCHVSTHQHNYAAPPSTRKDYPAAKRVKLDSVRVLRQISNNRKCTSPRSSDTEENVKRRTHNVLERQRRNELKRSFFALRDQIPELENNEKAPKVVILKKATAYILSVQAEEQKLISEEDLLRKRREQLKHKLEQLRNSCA

Molecular target: T1, chaperonin containing TCP1 subunit 2 (human (endogenous in HSC-3)) (UniProt P78371)
T1 sequence: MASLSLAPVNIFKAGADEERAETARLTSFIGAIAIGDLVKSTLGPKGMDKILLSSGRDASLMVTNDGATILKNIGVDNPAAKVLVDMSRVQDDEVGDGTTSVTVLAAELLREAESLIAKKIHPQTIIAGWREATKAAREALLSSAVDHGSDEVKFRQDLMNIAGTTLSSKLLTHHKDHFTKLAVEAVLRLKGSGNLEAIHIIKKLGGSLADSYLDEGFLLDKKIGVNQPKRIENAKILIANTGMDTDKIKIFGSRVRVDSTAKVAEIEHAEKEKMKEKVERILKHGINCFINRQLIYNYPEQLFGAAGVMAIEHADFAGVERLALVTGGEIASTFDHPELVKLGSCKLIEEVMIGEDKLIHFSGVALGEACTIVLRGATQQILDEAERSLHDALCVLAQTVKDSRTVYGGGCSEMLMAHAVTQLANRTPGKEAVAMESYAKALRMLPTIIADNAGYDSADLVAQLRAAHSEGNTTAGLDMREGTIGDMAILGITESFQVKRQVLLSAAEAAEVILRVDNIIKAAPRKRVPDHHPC
Experiment: co-IP; HSC-3 cell lysates in immunoprecipitation lysis buffer with protease inhibitors; incubated at 4 °C overnight with anti-CCT2 or anti-c-Myc antibody, then protein A/G agarose beads; Western blot for c-Myc and CCT2

binding: binds
Substance: c-Myc (from UniProt P01106 1-454)
